Assay results from patent US9295676B2, “Mutation mimicking compounds that bind to the kinase domain of EGFR” (The Trustees Of The University of Pennsylvania, priority 2011, dated 2016).
Some entries share one result that the patent states for a list of compounds.

Biological target: T1, purified EGFR kinase (Homo sapiens, UniProt P00533)
T1 construct: purchased Reaction Biology Corp
Test: EGFR kinase assay (33P radioisotope, HotSpot)
Type: biochemical
Conditions: in the presence of the MMC, FIG. 5B

| SMILES | enhancement of binding of Tarceva® to EGFR |
| --- | --- |
| CC1(C)Cc2cccc(C(=O)N3CCC(O)(c4ccc(Cl)cc4)CC3)c2O1 [EEO3] | 2-3 fold |
| CC(=O)OCC(=O)[C@@]1(O)[C@H](C)CC2C3CCC4CC(=O)C=CC4(C)C3[C@H](O)CC21C (some centres unmarked) [EEO4] | 2-3 fold |
